Measurements reported in article PMC9192764.
Results are given in words; binding and its absence hold for the method and conditions named. In cells and extracts the contact can be indirect. A result given as binding can be weak or reduced; the word gives no strength.

Amino acid sequences for entries named in this document (tags omitted). A change or cut given only in a name is not applied to a line headed by its entry.
UniProt P10408: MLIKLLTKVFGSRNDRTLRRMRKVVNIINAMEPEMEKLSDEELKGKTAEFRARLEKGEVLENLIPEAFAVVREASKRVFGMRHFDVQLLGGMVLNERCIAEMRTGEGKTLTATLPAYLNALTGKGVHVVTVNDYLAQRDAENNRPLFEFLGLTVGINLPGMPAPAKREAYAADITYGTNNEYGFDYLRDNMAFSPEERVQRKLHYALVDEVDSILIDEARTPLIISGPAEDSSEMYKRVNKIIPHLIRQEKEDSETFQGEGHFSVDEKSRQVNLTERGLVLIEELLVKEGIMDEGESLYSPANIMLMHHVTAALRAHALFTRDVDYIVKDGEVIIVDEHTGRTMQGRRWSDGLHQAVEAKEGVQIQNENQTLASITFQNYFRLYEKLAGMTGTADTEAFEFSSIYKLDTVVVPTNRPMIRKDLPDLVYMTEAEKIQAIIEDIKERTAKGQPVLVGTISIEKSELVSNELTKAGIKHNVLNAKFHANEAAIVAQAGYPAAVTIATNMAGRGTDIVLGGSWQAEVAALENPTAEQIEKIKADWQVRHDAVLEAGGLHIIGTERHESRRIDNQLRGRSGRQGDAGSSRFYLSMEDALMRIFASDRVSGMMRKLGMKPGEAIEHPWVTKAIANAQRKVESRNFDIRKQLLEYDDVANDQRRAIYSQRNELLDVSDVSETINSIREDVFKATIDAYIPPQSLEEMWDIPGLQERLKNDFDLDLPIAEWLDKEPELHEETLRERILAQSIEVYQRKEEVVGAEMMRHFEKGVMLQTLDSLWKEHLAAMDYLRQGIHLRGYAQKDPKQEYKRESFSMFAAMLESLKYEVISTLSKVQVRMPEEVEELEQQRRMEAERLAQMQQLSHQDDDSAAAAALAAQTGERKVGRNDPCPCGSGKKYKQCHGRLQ
UniProt P0AEG4: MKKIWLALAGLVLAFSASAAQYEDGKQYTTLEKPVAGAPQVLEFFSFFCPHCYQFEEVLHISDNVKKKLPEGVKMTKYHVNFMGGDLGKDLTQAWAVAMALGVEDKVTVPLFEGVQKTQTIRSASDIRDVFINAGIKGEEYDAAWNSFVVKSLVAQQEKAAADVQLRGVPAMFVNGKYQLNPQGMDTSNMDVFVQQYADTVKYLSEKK

Biological target: SecA with a C-terminal thrombin-cleavable AviTag (chromosomal) (E. coli (endogenous in strain K-12 W3110)) (UniProt P10408)
Assay: selective ribosome profiling (EDC cross-linking, affinity purification of SecA-bound ribosome-nascent chain complexes, sequencing of ribosome-protected mRNA fragments); cryogenically lysed E. coli W3110 cells; SecA cross-linked to nascent chains in the lysate with 20 mM EDC at room temperature; MNase digestion; monosomes through a sucrose cushion; biotinylated Avi-tagged SecA held on streptavidin magnetic beads, eluted by thrombin; enrichment = SecA interactome over translatome at each codon; two biological replicates; also done in secA∆ZnBD, ∆secB, ∆tig and CCCP-treated cells

Substance: DsbA nascent chain (from UniProt P0AEG4)
- binding: binds
